This is one part of the list.
Legend:
Experiment in all cases: log2 fold change, soluble protein after heating vs DMSO (PISA); higher = thermal stabilisation; K562 lysate, 10 uM; active = over 0.2 and 3.5 SD of the protein, either way, in both replicates (recomputed)
[1] = compound: C1=CC=C(C=C1)[C@H](COC2=CC3=C(C=C2)NC(=O)N3)NC(=O)C4=CC=CN(C4=O)CC5=CC(=C(C=C5)F)F
In short: (§1)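 A 30 min treatment with 10 μM compound was applied to crude K562 extract at 1 mg/mL protein in PBS pH 7.4 with 1 mM MgCl2. Heating for 3 min spanned 48°C-58°C, after which aliquots were pooled, adjusted to 0.5% NP-40 at 4°C and spun at 21,000xg for 90 min. TMTpro 16plex LC-MS/MS of the supernatant, with channel sums equalised, gave values recorded as log-two fold change in thermal stability against solvent controls, from duplicates.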

Protein sequences, listed by entry. Tags and fused reporters are not part of them. Lines headed by an entry give the natural chain unless they say otherwise; changes in a name come on top.
UniProt P51812, whole entry, looked up: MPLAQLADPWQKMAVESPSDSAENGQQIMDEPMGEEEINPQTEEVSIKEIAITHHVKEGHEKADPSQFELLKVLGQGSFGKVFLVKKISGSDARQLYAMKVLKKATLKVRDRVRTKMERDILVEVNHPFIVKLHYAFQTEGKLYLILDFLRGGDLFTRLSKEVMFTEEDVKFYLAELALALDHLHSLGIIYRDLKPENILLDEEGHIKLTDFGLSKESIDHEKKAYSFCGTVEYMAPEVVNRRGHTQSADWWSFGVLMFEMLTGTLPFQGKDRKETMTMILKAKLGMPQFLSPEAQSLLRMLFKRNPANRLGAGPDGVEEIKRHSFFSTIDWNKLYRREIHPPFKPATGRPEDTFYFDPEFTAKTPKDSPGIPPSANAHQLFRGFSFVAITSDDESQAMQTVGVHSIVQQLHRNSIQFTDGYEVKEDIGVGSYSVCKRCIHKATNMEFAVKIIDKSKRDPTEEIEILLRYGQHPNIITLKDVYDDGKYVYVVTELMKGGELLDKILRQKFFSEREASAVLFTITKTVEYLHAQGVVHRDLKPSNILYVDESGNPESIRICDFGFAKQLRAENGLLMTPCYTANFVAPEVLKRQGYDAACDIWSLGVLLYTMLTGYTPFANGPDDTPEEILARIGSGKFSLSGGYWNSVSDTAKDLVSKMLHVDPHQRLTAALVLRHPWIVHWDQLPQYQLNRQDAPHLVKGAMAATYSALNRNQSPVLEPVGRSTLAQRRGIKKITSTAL
UniProt Q9NQC3: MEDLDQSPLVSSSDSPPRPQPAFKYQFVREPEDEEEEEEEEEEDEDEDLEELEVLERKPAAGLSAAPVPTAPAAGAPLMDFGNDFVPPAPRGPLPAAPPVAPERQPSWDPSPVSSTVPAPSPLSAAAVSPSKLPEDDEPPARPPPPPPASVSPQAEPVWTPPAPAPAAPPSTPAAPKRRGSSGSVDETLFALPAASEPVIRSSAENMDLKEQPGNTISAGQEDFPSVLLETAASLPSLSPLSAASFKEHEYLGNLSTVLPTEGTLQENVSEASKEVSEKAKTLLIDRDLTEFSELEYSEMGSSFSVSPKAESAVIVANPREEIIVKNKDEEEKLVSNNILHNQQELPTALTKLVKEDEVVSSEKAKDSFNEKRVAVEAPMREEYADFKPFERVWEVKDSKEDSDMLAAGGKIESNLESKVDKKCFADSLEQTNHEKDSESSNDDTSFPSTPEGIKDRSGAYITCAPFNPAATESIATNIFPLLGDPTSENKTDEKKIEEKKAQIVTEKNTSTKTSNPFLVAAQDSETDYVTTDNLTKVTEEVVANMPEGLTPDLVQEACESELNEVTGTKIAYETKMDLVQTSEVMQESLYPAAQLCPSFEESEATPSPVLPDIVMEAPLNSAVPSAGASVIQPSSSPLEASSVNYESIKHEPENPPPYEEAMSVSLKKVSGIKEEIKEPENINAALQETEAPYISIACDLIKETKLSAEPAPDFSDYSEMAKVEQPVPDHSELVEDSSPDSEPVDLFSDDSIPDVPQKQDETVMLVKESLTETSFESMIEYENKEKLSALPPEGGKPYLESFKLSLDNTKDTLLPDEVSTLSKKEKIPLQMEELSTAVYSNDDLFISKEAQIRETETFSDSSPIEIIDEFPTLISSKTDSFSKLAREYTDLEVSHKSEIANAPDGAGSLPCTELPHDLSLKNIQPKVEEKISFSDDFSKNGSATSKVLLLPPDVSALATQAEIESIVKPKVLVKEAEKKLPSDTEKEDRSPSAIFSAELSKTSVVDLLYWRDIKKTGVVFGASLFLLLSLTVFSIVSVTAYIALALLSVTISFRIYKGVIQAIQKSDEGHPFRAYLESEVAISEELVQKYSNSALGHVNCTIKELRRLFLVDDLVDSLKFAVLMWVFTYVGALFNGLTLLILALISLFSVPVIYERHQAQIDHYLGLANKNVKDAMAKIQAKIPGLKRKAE
UniProt P10301: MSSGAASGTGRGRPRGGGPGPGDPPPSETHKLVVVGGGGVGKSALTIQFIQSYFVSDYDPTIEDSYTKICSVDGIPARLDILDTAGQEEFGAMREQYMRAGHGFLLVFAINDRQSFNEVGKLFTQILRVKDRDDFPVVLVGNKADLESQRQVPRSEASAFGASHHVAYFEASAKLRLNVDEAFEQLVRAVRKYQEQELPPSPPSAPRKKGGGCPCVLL
UniProt Q7L4I2: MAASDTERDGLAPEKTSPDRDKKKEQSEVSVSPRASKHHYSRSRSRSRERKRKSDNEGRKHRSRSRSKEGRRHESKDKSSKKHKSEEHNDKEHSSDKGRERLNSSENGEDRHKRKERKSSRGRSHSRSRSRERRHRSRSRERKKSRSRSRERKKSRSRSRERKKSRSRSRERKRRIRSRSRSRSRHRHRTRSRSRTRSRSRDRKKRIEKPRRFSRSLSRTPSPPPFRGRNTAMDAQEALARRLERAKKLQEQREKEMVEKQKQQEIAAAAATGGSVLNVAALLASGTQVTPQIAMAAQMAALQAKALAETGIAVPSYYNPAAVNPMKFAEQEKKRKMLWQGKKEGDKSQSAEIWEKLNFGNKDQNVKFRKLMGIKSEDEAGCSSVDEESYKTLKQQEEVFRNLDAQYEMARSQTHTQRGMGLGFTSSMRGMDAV
UniProt P23921: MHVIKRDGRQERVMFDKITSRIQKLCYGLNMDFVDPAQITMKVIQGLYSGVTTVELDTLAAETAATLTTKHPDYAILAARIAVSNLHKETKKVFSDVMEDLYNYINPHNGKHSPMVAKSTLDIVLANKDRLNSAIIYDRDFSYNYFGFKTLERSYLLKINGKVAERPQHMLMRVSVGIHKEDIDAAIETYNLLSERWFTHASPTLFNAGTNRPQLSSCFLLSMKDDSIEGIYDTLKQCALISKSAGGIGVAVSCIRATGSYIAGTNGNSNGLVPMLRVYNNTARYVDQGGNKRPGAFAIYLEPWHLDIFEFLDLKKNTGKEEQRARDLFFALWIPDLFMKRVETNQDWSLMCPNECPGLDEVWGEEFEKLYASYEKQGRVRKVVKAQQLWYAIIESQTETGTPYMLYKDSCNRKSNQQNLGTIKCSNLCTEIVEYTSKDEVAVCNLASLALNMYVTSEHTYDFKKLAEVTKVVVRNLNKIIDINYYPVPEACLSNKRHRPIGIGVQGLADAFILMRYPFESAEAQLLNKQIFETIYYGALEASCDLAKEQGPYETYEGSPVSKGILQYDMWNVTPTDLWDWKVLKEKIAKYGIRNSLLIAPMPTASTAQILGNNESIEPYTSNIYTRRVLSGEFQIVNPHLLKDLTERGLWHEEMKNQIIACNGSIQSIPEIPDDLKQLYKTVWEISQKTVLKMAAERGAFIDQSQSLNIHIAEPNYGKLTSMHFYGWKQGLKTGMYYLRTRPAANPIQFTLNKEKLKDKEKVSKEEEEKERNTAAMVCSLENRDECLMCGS
UniProt P04844: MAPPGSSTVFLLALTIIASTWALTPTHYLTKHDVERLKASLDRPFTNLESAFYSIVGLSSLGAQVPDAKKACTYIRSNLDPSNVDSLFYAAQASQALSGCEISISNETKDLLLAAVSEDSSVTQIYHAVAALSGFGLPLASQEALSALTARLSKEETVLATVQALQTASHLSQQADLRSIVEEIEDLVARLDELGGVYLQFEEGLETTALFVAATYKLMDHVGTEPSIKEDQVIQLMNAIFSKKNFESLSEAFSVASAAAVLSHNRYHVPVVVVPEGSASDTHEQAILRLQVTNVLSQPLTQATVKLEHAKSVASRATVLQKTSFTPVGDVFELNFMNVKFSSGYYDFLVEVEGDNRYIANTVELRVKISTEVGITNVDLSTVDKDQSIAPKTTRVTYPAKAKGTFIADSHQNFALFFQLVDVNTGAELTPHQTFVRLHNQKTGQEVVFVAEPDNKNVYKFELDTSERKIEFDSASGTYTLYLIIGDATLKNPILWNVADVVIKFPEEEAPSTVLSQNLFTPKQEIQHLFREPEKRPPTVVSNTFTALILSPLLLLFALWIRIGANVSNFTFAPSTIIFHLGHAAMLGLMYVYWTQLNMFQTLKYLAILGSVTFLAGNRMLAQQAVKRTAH

[2] = compound: CC1=C(SC2=C1C(=N[C@H](C3=NN=C(N32)C)CC(=O)N)C4=CC=C(C=C4)Cl)C
In short: as §1

[3] = compound: CC1=C2C(=CC=C1)N=C(N(C2=O)C3=CC=CC=C3C)CN4C=NC5=C(N=CN=C54)N
In short: as §1

[4] = compound: Cc1sc2c(c1C)C(c1ccc(Cl)cc1)=N[C@@H](CC(=O)OC(C)(C)C)c1nnc(C)n1-2
In short: as §1

[5] = compound: c1ccc([C@@H]2C[C@H]2NC2CCNCC2)cc1
In short: as §1

Measured: log2 fold change

RPS6KA3 (UniProt P51812)
inactive: [1] -0.049 | [2] -0.031 | [3] -0.008 | [4] 0.009 | [5] -0.061

RPS5 (UniProt P46782)
inactive: [1] 0.005 | [2] 0.029 | [3] -0.033 | [4] 0.055 | [5] 0.066

RTN4 isoform 5 (UniProt Q9NQC3)
inactive: [1] -0.064 | [2] -0.056 | [3] -0.246 | [4] 0.007 | [5] -0.261

RRAS (UniProt P10301)
inactive: [1] -0.044 | [2] 0.037 | [3] 0.026 | [4] -0.028 | [5] 0.009

RSRC2 (UniProt Q7L4I2)
inactive: [1] 0.08 | [2] -0.048 | [3] 0.029 | [4] -0.008 | [5] -0.024

RRM1 (UniProt P23921)
inactive: [1] 0.014 | [2] 0.028 | [3] 0.042 | [4] 0.028 | [5] 0.004

RPS27L (UniProt Q71UM5)
inactive: [1] -0.08 | [2] 0.086 | [3] 0.014 | [4] 0.044 | [5] 0.072

RPN2 (UniProt P04844)
inactive: [1] -0.001 | [2] -0.01 | [3] 0.01 | [4] -0.008 | [5] -0.009

RSL1D1 (UniProt O76021)
inactive: [1] 0.021 | [2] -0.002 | [3] -0.018 | [4] 0.066 | [5] 0.023

Reprinted at random: two entries already listed, in no set order.
RRM1 (UniProt P23921)
inactive: [1] 0.014 | [2] 0.028 | [3] 0.042 | [4] 0.028 | [5] 0.004

RPN2 (UniProt P04844)
inactive: [1] -0.001 | [2] -0.01 | [3] 0.01 | [4] -0.008 | [5] -0.009
